Results as given in patent publication US8779002B2, “Methods for treating a variety of diseases and conditions, and compounds useful therefor” (Salk Institute for Biological Studies, priority 2007, dated 2014).

Test system: Wistar rats
Assay: Open field locomotor activity in rats
Format: in vivo, rat
Settings: number of lines crossed in 5 minute acclimatization period

SMILES	Fisher's PLSD for Locomotor Activity, Mean Diff. (*vehicle, treatment) (vehicle versus 5 mg/kg oral)	Fisher's PLSD for Locomotor Activity, Mean Diff. (*vehicle, treatment) (vehicle versus 10 mg/kg oral)	Fisher's PLSD for Locomotor Activity, Mean Diff. (*vehicle, treatment) (vehicle versus 25 mg/kg oral)
COc1cccc(/C=N/N(C(=O)C(F)(F)F)c2ccc(C)cc2C)c1 [Compound J147]	−52.875	−43.375	−49.750
COc1cc(/C=C/c2cc(/C=C/c3ccc(O)c(OC)c3)n(-c3ccccc3)n2)ccc1O [CNB-001]	8.375	−12.625	16.750
